These are yes or no findings as the source states them, for the method shown. For some of these results: Binding seen in cells or lysates may run through a third protein. Some binding calls cover weakened binding; strength is not graded here.
Key:
[1] = target: GST-Bromo (NURF301 aa 2525–2669) (Drosophila) (UniProt Q9W0T1); test: pull-down; reciprocal: GST-fusion protein (5 µg) as bait on Glutathione-Sepharose beads, 1 µg biotinylated tail peptide; 50 mM Tris, 150 mM NaCl, 0.1% NP-40, 4°C overnight; peptides detected with Streptavidin-HRP; both purified
[2] = target: FLAG-NURF301ΔC (amino acids 1–1557) (Drosophila) (UniProt Q9W0T1); test: co-IP; SF9 cells co-infected with baculoviruses for FLAG-NURF301ΔC, ISWI, NURF55 and NURF38; FLAG-NURF301ΔC purified on anti-FLAG beads; other subunits detected by Western blotting

Amino acid sequences for entries named in this document (tags omitted). A change or cut given only in a name is not applied to a line headed by its entry. Residues count along the entry.
FLAG-NURF301ΔC (amino acids 1–1557) (Q9W0T1, residues 1-1557): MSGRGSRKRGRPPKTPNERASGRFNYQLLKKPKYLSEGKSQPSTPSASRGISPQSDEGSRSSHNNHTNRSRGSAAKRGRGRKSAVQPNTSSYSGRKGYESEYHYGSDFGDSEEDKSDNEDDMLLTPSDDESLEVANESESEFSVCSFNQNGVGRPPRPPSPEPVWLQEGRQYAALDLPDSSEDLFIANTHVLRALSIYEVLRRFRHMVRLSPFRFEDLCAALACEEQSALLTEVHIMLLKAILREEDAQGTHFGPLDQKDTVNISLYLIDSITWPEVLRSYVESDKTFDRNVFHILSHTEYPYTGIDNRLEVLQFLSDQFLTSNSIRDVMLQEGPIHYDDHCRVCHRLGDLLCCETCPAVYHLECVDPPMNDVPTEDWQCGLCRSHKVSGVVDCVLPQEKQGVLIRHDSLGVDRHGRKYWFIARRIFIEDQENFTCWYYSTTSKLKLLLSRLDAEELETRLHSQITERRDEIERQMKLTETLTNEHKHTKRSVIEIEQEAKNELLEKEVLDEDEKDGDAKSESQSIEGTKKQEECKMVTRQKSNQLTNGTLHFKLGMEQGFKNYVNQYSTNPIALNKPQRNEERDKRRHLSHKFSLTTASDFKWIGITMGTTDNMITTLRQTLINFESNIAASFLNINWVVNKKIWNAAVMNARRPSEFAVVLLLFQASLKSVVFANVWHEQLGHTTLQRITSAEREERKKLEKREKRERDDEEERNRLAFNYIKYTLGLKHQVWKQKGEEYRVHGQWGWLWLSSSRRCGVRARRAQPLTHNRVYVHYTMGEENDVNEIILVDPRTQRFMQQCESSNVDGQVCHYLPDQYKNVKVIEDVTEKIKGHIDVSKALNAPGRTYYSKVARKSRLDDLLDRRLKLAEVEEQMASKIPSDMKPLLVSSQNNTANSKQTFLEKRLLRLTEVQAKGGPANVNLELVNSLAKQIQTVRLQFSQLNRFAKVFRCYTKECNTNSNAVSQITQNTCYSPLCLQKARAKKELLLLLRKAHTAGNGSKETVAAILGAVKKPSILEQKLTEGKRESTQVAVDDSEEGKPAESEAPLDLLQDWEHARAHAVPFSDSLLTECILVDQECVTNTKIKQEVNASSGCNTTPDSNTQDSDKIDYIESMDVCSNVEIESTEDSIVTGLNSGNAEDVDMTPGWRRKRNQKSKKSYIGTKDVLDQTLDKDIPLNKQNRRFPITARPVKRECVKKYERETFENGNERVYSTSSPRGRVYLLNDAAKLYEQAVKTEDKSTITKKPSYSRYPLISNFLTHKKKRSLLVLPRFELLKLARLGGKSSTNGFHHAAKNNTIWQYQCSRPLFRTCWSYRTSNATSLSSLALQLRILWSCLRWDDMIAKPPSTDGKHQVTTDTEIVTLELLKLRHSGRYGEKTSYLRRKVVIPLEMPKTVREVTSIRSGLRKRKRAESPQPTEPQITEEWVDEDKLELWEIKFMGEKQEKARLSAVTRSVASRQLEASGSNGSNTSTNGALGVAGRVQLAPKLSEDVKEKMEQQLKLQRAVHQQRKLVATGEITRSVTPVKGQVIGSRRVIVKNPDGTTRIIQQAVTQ
GST-Bromo (NURF301 aa 2525–2669) (Q9W0T1, residues 2525-2669): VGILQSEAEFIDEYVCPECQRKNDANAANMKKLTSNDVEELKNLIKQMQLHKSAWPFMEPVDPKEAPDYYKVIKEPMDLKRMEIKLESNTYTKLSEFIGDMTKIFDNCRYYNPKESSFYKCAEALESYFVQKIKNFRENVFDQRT
UniProt Q24368: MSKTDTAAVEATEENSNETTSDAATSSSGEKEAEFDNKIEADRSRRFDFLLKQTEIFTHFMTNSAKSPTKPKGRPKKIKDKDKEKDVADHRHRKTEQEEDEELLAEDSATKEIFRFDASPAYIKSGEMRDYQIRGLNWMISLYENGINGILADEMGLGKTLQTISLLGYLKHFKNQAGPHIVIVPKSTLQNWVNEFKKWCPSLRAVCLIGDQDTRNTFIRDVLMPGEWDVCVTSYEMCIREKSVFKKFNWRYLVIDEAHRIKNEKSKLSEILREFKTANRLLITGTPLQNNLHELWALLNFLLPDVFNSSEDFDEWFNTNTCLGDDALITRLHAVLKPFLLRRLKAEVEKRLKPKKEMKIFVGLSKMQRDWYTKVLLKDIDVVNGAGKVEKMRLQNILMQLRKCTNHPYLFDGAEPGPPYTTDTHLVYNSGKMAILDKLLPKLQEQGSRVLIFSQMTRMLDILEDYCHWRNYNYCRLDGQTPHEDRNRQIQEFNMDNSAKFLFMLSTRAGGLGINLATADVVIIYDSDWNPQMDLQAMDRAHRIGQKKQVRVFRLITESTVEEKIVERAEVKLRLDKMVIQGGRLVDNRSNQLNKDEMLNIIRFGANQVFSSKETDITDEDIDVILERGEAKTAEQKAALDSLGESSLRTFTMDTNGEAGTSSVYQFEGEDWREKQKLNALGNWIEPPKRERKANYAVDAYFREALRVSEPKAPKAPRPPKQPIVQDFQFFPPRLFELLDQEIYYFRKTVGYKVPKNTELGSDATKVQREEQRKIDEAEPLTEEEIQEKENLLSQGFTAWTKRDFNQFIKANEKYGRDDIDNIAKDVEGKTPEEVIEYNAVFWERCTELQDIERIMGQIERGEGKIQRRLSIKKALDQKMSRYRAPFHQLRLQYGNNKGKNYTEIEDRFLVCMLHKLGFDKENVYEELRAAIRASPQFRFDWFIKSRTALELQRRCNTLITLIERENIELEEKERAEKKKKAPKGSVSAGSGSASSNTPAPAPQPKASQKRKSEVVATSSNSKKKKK
UniProt Q24572: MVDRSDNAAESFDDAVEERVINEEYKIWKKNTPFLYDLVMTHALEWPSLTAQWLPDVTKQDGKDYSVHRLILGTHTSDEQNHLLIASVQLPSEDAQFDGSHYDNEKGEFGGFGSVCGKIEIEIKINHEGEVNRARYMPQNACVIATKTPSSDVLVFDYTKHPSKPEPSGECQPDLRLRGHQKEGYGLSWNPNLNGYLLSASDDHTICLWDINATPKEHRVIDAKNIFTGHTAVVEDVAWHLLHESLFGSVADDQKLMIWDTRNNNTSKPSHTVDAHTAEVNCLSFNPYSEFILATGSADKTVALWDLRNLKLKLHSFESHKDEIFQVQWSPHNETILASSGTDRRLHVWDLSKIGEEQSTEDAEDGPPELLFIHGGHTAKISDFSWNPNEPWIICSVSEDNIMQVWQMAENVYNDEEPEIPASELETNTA

Molecule: unmodified H4 (1–21) tail peptide, biotinylated (from UniProt P62805 2-22)
- binding [1]: no binding (tested: 1 µg tail peptide with 5 µg protein)

Molecule: HA-ISWI (from UniProt Q24368 1-1027) (enzyme)
- binding [2]: binds

Molecule: MYC-NURF55 (from UniProt Q24572 1-430)
- binding [2]: binds

B1: NURF38 (protein, UniProt O77460 1-338)
chain: MLAKITRSSFYASRAVGRLSGSIPTSPAALASNCRYIQIERKRTKSHEMALYETVEKGAKNSPSYSLYFKNKCGNVISPMHDIPLYANEEKTIYNMVVEVPRWTNAKMEISLKTPMNPIKQDIKKGKLRFVANCFPHKGYIWNYGALPQTWENPDHIEPSTGCKGDNDPIDVIEIGYRVAKRGDVLKVKVLGTIALIDEGETDWKIIAIDVNDPLASKVNDIADVDQYFPGLLRATVEWFKIYKIPDGKPENQFAFNGDAKNADFANTIIAETHKFWQNLVHQSPASGSISTTNITNRNSEHVIPKEEAEKILAEAPDGGQVEEVSDTVDTWHFIHLK
- binding [2]: binds
